Test results reported in PubChem BioAssay AID540256 (National Center for Advancing Translational Sciences (NCATS), 2011).
Hit rate of the full screen: of about 300,000 compounds, about 3,700 (1.2%) were called active. This list was built around the results that the source calls inconclusive (neither active nor inactive); the mix of calls is not that of the screen. The call rests on the fitted dose curve; tested in HEK293 cells. Potencies of inconclusive entries are doubtful fits and often do not repeat.
On the % scale 0 is the no-effect control and ±100 the full control effect; potency means the concentration at half of the fitted maximal effect.

Assay: qHTS for Inhibitors of binding or entry into cells for Lassa Virus; further: nearly all actives have a fitted effect of over 50% in size
Conditions: Lassa virus pseudotype entry inhibition, cell reporter; activity change, negative = inhibition: at 37.9 µM (top of the series) unless noted
For CC(C)(C)c1sc(N)nc1-c1ccccc1, the “activity change, negative = inhibition” value was inactive: 9.7%.
In the case of Cn1ccnc1C(=O)c1cccc(Br)c1, the Potency is reported as inconclusive: 22.4 µM [activator, single point].
In the case of COc1cc(OC)c(C(=O)NCc2nc(-c3ccccc3)no2)cc1OC, the Potency is reported as inconclusive: 6.31 µM [inhibitor, single point].
With O=C(Nc1cc(Cl)cc(Cl)c1)c1ccc(F)c(S(=O)(=O)N2CCCC2)c1 the Potency was inconclusive: 6.31 µM [inhibitor, partial curve, poor fit].
With CC1Cc2cc(S(=O)(=O)CCC(=O)Nc3cccc(F)c3)ccc2N1C(=O)C1CC1 (stereo not given) the “activity change, negative = inhibition” value was inactive: -16% [at 46.1 µM].
With CC(=O)Oc1cc2c(cc1Cl)C(c1cccs1)CC1(CC(C)(C)NC(=S)N1)O2 (stereo not given) the Potency was inconclusive: 7.94 µM [inhibitor, partial curve, poor fit].
In the case of CCn1cc(Cl)c(C(=O)Nc2ccc3c(c2)OCCO3)n1, the Potency is reported as inconclusive: 17.8 µM [inhibitor, single point].
For O=C(Nc1cccc(C(F)(F)F)c1)c1cc2c(=O)c3ccccc3oc2nc1C(F)(F)F, the Potency was inconclusive: 20.6 µM [activator, single point].
With CC(C)CCN1CCN(C2CCN(c3ccc4c(c3)OCO4)CC2)CC1CCO (stereo not given) the “activity change, negative = inhibition” value was inactive: -17.9% [at 46.1 µM].
In the case of COC(=O)c1ccc(-n2c(C)cc(C(=O)CSc3ccc(NC(C)=O)cc3)c2C)cc1, the Potency is reported as inconclusive: 13 µM [inhibitor, partial curve, poor fit].
For CCCc1cc(=O)[nH]c(SCC(=O)Nc2sc3c(c2C#N)CCC(C)C3)n1 (stereo not given), the “activity change, negative = inhibition” value was inactive: -9.96% [at 46.1 µM].
For CC(=O)c1cccc(NC(=O)c2nccnc2C(=O)O)c1, the Potency was inconclusive: 0.164 µM [activator, full curve, poor fit].
In the case of COc1ccc(Cn2c(CCC(=O)Nc3ccc(Br)c(C)c3)nc3cccnc32)cc1, the “activity change, negative = inhibition” value is reported as inactive: -12.4% [at 46.1 µM].
With Cc1cccc(NC(=O)CCCc2ccccc2)c1C the “activity change, negative = inhibition” value was inactive: 25.5% [at 46.1 µM].
In the case of O=[N+]([O-])c1ccc(-c2cn(-c3ccc(Cl)cc3)c(=S)[nH]2)cc1, the Potency is reported as inconclusive: 35.5 µM [activator, partial curve, poor fit].
In the case of Cc1c(C(=O)NCCc2ccccc2)oc2ccc(S(=O)(=O)N3CCOCC3)cc12, the Potency is reported as inconclusive: 0.82 µM [inhibitor, partial curve, poor fit].
For O=S(=O)(NC1CCCCCC1)c1cccc2cccnc12, the Potency was inconclusive: 25.9 µM [activator, single point].
For COc1cc2c(C(=O)N3CCN(c4cccc(Cl)c4)CC3)cn(C)c(=O)c2cc1OC, the Potency was inconclusive: 35.5 µM [inhibitor, single point].
With O=C(Nc1cccc(Br)c1)Nc1nc2c(s1)CCCCCC2 the “activity change, negative = inhibition” value was inactive: 4.3% [at 46.1 µM].
For Cc1ccc(CN2CCC(n3nccc3NC(=O)CCOc3ccccc3)CC2)o1, the Potency was inconclusive: 0.355 µM [activator, full curve, poor fit].
For CC(=O)c1ccc(S(=O)(=O)N2CCN(c3nc4c(C)c(C)ccc4cc3C#N)CC2)cc1, the Potency was active: 18.3 µM.
In the case of Cc1nn(CC(=O)NCC2CCCO2)c(=O)c2ccccc12 (stereo not given), the “activity change, negative = inhibition” value is reported as inactive: -28.6%.
In the case of COc1ccc(N2C(=O)CS/C2=N\C(=S)Nc2ccccc2)cc1, the Potency is reported as inconclusive: 0.112 µM [activator, full curve, poor fit].
With S=c1[nH]nc(Cn2cnc3ccccc32)n1-c1ccccc1 the Potency was inconclusive: 0.891 µM [inhibitor, single point].
In the case of CCOC(=O)/C(C#N)=N\Nc1ccc(S(=O)(=O)Nc2nc(C)cc(C)n2)cc1, the Potency is reported as inconclusive: 11.6 µM [activator, partial curve, poor fit].
In the case of O=c1c(Cl)c(NCCCO)cnn1-c1nc2ccccc2[nH]1, the Potency is reported as inconclusive: 11.2 µM [inhibitor, partial curve, poor fit].
In the case of COc1ccc(C2=NN(C(=O)CN3CCOCC3)C(c3nc4ccccc4[nH]3)C2)cc1 (stereo not given), the “activity change, negative = inhibition” value is reported as inactive: -23.5%.
In the case of CCC(Sc1nc2cc3c(cc2c(=O)n1CCCCCC(=O)NCc1ccc2c(c1)OCO2)OCO3)C(=O)NCCCOC (stereo not given), the “activity change, negative = inhibition” value is reported as inactive: 4% [at 46.1 µM].
With COc1ccc(N(C(=O)Nc2ccc(Cl)cc2)C2=NCCC2)cc1 the Potency was active: 6.51 µM.
For COc1ccc(Cl)cc1NC(=O)CN(C)C(=O)c1cc2c(s1)CCC(C)C2 (stereo not given), the Potency was inconclusive: 1 µM [inhibitor, single point].
For CCOc1ccc(-c2cn(-c3ccc(OC)cc3)c(SC)n2)cc1, the Potency was inconclusive: 4.11 µM [activator, single point].
In the case of COc1ccc(CCNC(=O)C(=O)NCC(c2ccco2)S(=O)(=O)c2cccs2)cc1 (stereo not given), the Potency is reported as inconclusive: 12.6 µM [inhibitor, single point].
With CC(C)(C)c1csc(N/N=C/c2cccnc2)n1 the Potency was inconclusive: 12.6 µM [inhibitor, single point].
With COC(=O)c1cn(C(=O)/C=C/c2ccc(OC)c(OC)c2)c2ccccc12 the Potency was inconclusive: 11.2 µM [inhibitor, single point].
With Cc1nn2c(=O)cc(COC(=O)c3ccc(NC(=O)CCc4ccccc4)cc3)nc2s1 the “activity change, negative = inhibition” value was inactive: 2.21% [at 46.1 µM].
In the case of CC(=O)Nc1ccc(OCC(O)CN2C(C)CCCC2C)cc1 (stereo not given), the “activity change, negative = inhibition” value is reported as inactive: 6.55%.
In the case of Cc1ccc(NS(=O)(=O)c2ccc(-n3cccn3)cc2)cc1C, the “activity change, negative = inhibition” value is reported as inactive: -14.8% [at 46.1 µM].
For CS(=O)(=O)c1ccc(C(=O)NC2CCCc3ccccc32)cc1 (stereo not given), the Potency was inconclusive: 6.31 µM [inhibitor, full curve, poor fit].
In the case of Cc1ccc(S(=O)(=O)N(C)C)cc1NC(=O)CN1CCN(Cc2ccccc2)CC1, the “activity change, negative = inhibition” value is reported as inactive: -10.5%.
In the case of CCOc1ccc(NC(=O)Cn2cc(C(=O)c3ccc(F)cc3)c(=O)c3cc4c(cc32)OCO4)cc1, the “activity change, negative = inhibition” value is reported as inactive: 8.35% [at 46.1 µM].
For CCOC(=O)c1cccc(NC(=O)c2ccc(-n3cnnn3)cc2)c1, the “activity change, negative = inhibition” value was inactive: -2.55% [at 46.1 µM].
With COc1cc2c(cc1OC)CN(c1ccc(C(F)(F)F)cn1)CC2 the “activity change, negative = inhibition” value was inactive: 6.32% [at 46.1 µM].
For CCOc1ccc2nc3c(cc2c1)CN(CCOC)C(=NCCOC)S3, the Potency was inconclusive: 18.3 µM [inhibitor, single point].
For COc1cc(C2C3=C(COC3=O)Oc3cc4c(cc32)OCO4)cc(OC)c1O (stereo not given), the Potency was inconclusive: 1.41 µM [inhibitor, partial curve, poor fit].
With Cc1ccc(-c2nnn(CC(=O)N(c3ccccc3)C(C(=O)NCC3CCCO3)c3cccs3)n2)o1 (stereo not given) the “activity change, negative = inhibition” value was inactive: 1%.
